Assay results: publication PMC3438196
These are yes or no findings as the source states them, for the method shown. Some entries that bind do so weakly or less than the wild type.

Key:
[1] = biological target: Apobec3G-GFP MAPPIT bait (pCEL-Apobec3G-GFP) (human), Q9HC16; test: two-hybrid; random mutagenesis MAPPIT: pCEL-Apobec3G-GFP baits (wild type, W127A, error prone PCR mutants), automated 384-well transfection of HEK293T cells, 1.5 ng bait and 6.5 ng prey plasmid per well, overnight 10 ng/ml hEpo; relative MAPPIT signal as % of the median of the six wild type baits on the plate; conditions: remark: other sources report otherwise
[2] = biological target: Apobec3G MAPPIT bait (pCEL-Apobec3G) (human), Q9HC16; test: two-hybrid; MAPPIT (mammalian two-hybrid) in intact HEK293T cells: bait on the EpoR/leptin receptor chimera, prey on gp130 fragments, pXP2d2-rPAP1-luciferase reporter; fold induction of luciferase, Epo-stimulated (10 ng/ml hEpo) over unstimulated; 6-well or 96-well calcium phosphate transfection; conditions: remark: other sources report otherwise

B1: Apobec3G MAPPIT prey (pMG2-Apobec3G), Q9HC16 1-384 (protein)
chain: MKPHFRNTVERMYRDTFSYNFYNRPILSRRNTVWLCYEVKTKGPSRPPLDAKIFRGQVYSELKYHPEMRFFHWFSKWRKLHRDQEYEVTWYISWSPCTKCTRDMATFLAEDPKVTLTIFVARLYYFWDPDYQEALRSLCQKRDGPRATMKIMNYDEFQHCWSKFVYSQRELFEPWNNLPKYYILLHIMLGEILRHSMDPPTFTFNFNNEPWVRGRHETYLCYEVERMHNDTWVLLNQRRGFLCNQAPHKHGFLEGRHAELCFLDVIPFWKLDLDQDYRVTCFTSWSPCFSCAQEMAKFISKNKHVSLCIFTARIYDDQGRCQEGLRTLAEAGAKISIMTYSEFKHCWDTFVDHQGCPFQPWDGLDEHSQDLSGRLRAILQNQEN
In the case of B1, the binding [1] is reported as “binds” and the binding [2] is reported as “binds”.
